{"sequences": {"note": "Protein sequences, listed by entry. Tags and fused reporters are not part of them.", "UniProt P27986": "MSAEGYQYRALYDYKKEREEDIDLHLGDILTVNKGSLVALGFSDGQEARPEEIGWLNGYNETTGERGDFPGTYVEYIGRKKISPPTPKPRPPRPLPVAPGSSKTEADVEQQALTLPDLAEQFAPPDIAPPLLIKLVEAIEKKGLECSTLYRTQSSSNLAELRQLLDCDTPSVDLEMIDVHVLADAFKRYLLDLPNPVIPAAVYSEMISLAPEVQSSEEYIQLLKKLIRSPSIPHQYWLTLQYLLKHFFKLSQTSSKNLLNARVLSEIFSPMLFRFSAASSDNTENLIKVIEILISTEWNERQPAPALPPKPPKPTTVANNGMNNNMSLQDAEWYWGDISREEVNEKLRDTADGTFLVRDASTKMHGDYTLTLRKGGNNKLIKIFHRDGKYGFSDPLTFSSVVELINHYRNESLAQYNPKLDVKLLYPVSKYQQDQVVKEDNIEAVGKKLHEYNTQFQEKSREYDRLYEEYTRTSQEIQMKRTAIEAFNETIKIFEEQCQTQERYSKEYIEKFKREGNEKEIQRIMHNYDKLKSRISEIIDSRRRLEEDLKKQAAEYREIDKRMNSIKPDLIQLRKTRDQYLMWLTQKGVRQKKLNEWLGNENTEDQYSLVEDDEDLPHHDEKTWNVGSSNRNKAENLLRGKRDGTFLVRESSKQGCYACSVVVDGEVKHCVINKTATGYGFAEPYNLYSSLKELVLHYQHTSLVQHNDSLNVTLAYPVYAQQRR"}, "source": "paper PMC4738311", "note": "No constants are given. Whether binding was seen depends on the method and setting. Binding seen in cells or lysates may run through a third protein. These calls come from enrichment with a bait or labelling near it, and not all partners need be listed.", "data": [{"target": "p85α regulatory subunit of phosphoinositide-3-kinase (PI3K) (human (endogenous in human cell lines)) (UniProt P27986)", "assay": "affinity purification with mass spectrometry; IP of endogenous p85α (rabbit polyclonal antibody) from 10 mg lysate (0.5% NP-40) of human NSCLC and multiple myeloma lines under serum, starvation or kinase inhibitors, short SDS-PAGE, LC-MS/MS; hits kept after reciprocal BLAST and subtraction of rabbit IgG controls", "values": [{"binder": "Ras GTPase-activating protein-binding protein 2 (protein, UniProt Q9UN86 1-482) MVMEKPSPLLVGREFVRQYYTLLNKAPEYLHRFYGRNSSYVHGGVDASGKPQEAVYGQNDIHHKVLSLNFSECHTKIRHVDAHATLSDGVVVQVMGLLSNSGQPERKFMQTFVLAPEGSVPNKFYVHNDMFRYEDEVFGDSEPELDEESEDEVEEEQEERQPSPEPVQENANSGYYEAHPVTNGIEEPLEESSHEPEPEPESETKTEELKPQVEEKNLEELEEKSTTPPPAEPVSLPQEPPKAFSWASVTSKNLPPSGTVSSSGIPPHVKAPVSQPRVEAKPEVQSQPPRVREQRPRERPGFPPRGPRPGRGDMEQNDSDNRRIIRYPDSHQLFVGNLPHDIDENELKEFFMSFGNVVELRINTKGVGGKLPNFGFVVFDDSEPVQRILIAKPIMFRGEVRLNVEEKKTRAARERETRGGGDDRRDIRRNDRGPGGPRGIVGGGMMRDRDGRGPPPRGGMAQKLGSGRGTGQMEGRFTGQRR", "binding": "binds"}, {"binder": "Rac GTPase-activating protein 1 (protein, UniProt Q9H0H5 1-632) MDTMMLNVRNLFEQLVRRVEILSEGNEVQFIQLAKDFEDFRKKWQRTDHELGKYKDLLMKAETERSALDVKLKHARNQVDVEIKRRQRAEADCEKLERQIQLIREMLMCDTSGSIQLSEEQKSALAFLNRGQPSSSNAGNKRLSTIDESGSILSDISFDKTDESLDWDSSLVKTFKLKKREKRRSTSRQFVDGPPGPVKKTRSIGSAVDQGNESIVAKTTVTVPNDGGPIEAVSTIETVPYWTRSRRKTGTLQPWNSDSTLNSRQLEPRTETDSVGTPQSNGGMRLHDFVSKTVIKPESCVPCGKRIKFGKLSLKCRDCRVVSHPECRDRCPLPCIPTLIGTPVKIGEGMLADFVSQTSPMIPSIVVHCVNEIEQRGLTETGLYRISGCDRTVKELKEKFLRVKTVPLLSKVDDIHAICSLLKDFLRNLKEPLLTFRLNRAFMEAAEITDEDNSIAAMYQAVGELPQANRDTLAFLMIHLQRVAQSPHTKMDVANLAKVFGPTIVAHAVPNPDPVTMLQDIKRQPKVVERLLSLPLEYWSQFMMVEQENIDPLHVIENSNAFSTPQTPDIKVSLLGPVTTPEHQLLKTPSSSSLSQRVRSTLTKNTPRFGSKSKSATNLGRQGNFFASPMLK", "binding": "binds"}, {"binder": "Kinesin-like protein KIF23 (protein, UniProt Q02241 1-960) MKSARAKTPRKPTVKKGSQTNLKDPVGVYCRVRPLGFPDQECCIEVINNTTVQLHTPEGYRLNRNGDYKETQYSFKQVFGTHTTQKELFDVVANPLVNDLIHGKNGLLFTYGVTGSGKTHTMTGSPGEGGLLPRCLDMIFNSIGSFQAKRYVFKSNDRNSMDIQCEVDALLERQKREAMPNPKTSSSKRQVDPEFADMITVQEFCKAEEVDEDSVYGVFVSYIEIYNNYIYDLLEEVPFDPIKPKPPQSKLLREDKNHNMYVAGCTEVEVKSTEEAFEVFWRGQKKRRIANTHLNRESSRSHSVFNIKLVQAPLDADGDNVLQEKEQITISQLSLVDLAGSERTNRTRAEGNRLREAGNINQSLMTLRTCMDVLRENQMYGTNKMVPYRDSKLTHLFKNYFDGEGKVRMIVCVNPKAEDYEENLQVMRFAEVTQEVEVARPVDKAICGLTPGRRYRNQPRGPVGNEPLVTDVVLQSFPPLPSCEILDINDEQTLPRLIEALEKRHNLRQMMIDEFNKQSNAFKALLQEFDNAVLSKENHMQGKLNEKEKMISGQKLEIERLEKKNKTLEYKIEILEKTTTIYEEDKRNLQQELETQNQKLQRQFSDKRRLEARLQGMVTETTMKWEKECERRVAAKQLEMQNKLWVKDEKLKQLKAIVTEPKTEKPERPSRERDREKVTQRSVSPSPVPLSSNYIAQISNGQQLMSQPQLHRRSNSCSSISVASCISEWEQKIPTYNTPLKVTSIARRRQQEPGQSKTCIVSDRRRGMYWTEGREVVPTFRNEIEIEEDHCGRLLFQPDQNAPPIRLRHRRSRSAGDRWVDHKPASNMQTETVMQPHVPHAITVSVANEKALAKCEKYMLTHQELASDGEIETKLIKGDIYKTRGGGQSVQFTDIETLKQESPNGSRKRRSSTVAPAQPDGAESEWTDVETRCSVAVEMRAGSQLGPGYQHHAQPKRKKP", "binding": "binds"}, {"binder": "Far upstream element-binding protein 2 (protein, UniProt Q92945 1-711) MSDYSTGGPPPGPPPPAGGGGGAGGAGGGPPPGPPGAGDRGGGGPGGGGPGGGSAGGPSQPPGGGGPGIRKDAFADAVQRARQIAAKIGGDAATTVNNSTPDFGFGGQKRQLEDGDQPESKKLASQGDSISSQLGPIHPPPRTSMTEEYRVPDGMVGLIIGRGGEQINKIQQDSGCKVQISPDSGGLPERSVSLTGAPESVQKAKMMLDDIVSRGRGGPPGQFHDNANGGQNGTVQEIMIPAGKAGLVIGKGGETIKQLQERAGVKMILIQDGSQNTNVDKPLRIIGDPYKVQQACEMVMDILRERDQGGFGDRNEYGSRIGGGIDVPVPRHSVGVVIGRSGEMIKKIQNDAGVRIQFKQDDGTGPEKIAHIMGPPDRCEHAARIINDLLQSLRSGPPGPPGGPGMPPGGRGRGRGQGNWGPPGGEMTFSIPTHKCGLVIGRGGENVKAINQQTGAFVEISRQLPPNGDPNFKLFIIRGSPQQIDHAKQLIEEKIEGPLCPVGPGPGGPGPAGPMGPFNPGPFNQGPPGAPPHAGGPPPHQYPPQGWGNTYPQWQPPAPHDPSKAAAAAADPNAAWAAYYSHYYQQPPGPVPGPAPAPAAPPAQGEPPQPPPTGQSDYTKAWEEYYKKIGQQPQQPGAPPQQDYTKAWEEYYKKQAQVATGGGPGAPPGSQPDYSAAWAEYYRQQAAYYGQTPGPGGPQPPPTQQGQQQAQ", "binding": "binds"}, {"binder": "Electron transfer flavoprotein subunit alpha, mitochondrial (protein, UniProt P13804 20-333) QSTLVIAEHANDSLAPITLNTITAATRLGGEVSCLVAGTKCDKVAQDLCKVAGIAKVLVAQHDVYKGLLPEELTPLILATQKQFNYTHICAGASAFGKNLLPRVAAKLEVAPISDIIAIKSPDTFVRTIYAGNALCTVKCDEKVKVFSVRGTSFDAAATSGGSASSEKASSTSPVEISEWLDQKLTKSDRPELTGAKVVVSGGRGLKSGENFKLLYDLADQLHAAVGASRAAVDAGFVPNDMQVGQTGKIVAPELYIAVGISGAIQHLAGMKDSKTIVAINKDPEAPIFQVADYGIVADLFKVVPEMTEILKKK", "binding": "binds"}, {"binder": "WD repeat and HMG-box DNA-binding protein 1 (protein, UniProt O75717 1-1129) MPATRKPMRYGHTEGHTEVCFDDSGSFIVTCGSDGDVRIWEDLDDDDPKFINVGEKAYSCALKSGKLVTAVSNNTIQVHTFPEGVPDGILTRFTTNANHVVFNGDGTKIAAGSSDFLVKIVDVMDSSQQKTFRGHDAPVLSLSFDPKDIFLASASCDGSVRVWQISDQTCAISWPLLQKCNDVINAKSICRLAWQPKSGKLLAIPVEKSVKLYRRESWSHQFDLSDNFISQTLNIVTWSPCGQYLAAGSINGLIIVWNVETKDCMERVKHEKGYAICGLAWHPTCGRISYTDAEGNLGLLENVCDPSGKTSSSKVSSRVEKDYNDLFDGDDMSNAGDFLNDNAVEIPSFSKGIINDDEDDEDLMMASGRPRQRSHILEDDENSVDISMLKTGSSLLKEEEEDGQEGSIHNLPLVTSQRPFYDGPMPTPRQKPFQSGSTPLHLTHRFMVWNSIGIIRCYNDEQDNAIDVEFHDTSIHHATHLSNTLNYTIADLSHEAILLACESTDELASKLHCLHFSSWDSSKEWIIDLPQNEDIEAICLGQGWAAAATSALLLRLFTIGGVQKEVFSLAGPVVSMAGHGEQLFIVYHRGTGFDGDQCLGVQLLELGKKKKQILHGDPLPLTRKSYLAWIGFSAEGTPCYVDSEGIVRMLNRGLGNTWTPICNTREHCKGKSDHYWVVGIHENPQQLRCIPCKGSRFPPTLPRPAVAILSFKLPYCQIATEKGQMEEQFWRSVIFHNHLDYLAKNGYEYEESTKNQATKEQQELLMKMLALSCKLEREFRCVELADLMTQNAVNLAIKYASRSRKLILAQKLSELAVEKAAELTATQVEEEEEEEDFRKKLNAGYSNTATEWSQPRFRNQVEEDAEDSGEADDEEKPEIHKPGQNSFSKSTNSSDVSAKSGAVTFSSQGRVNPFKVSASSKEPAMSMNSARSTNILDNMGKSSKKSTALSRTTNNEKSPIIKPLIPKPKPKQASAASYFQKRNSQTNKTEEVKEENLKNVLSETPAICPPQNTENQRPKTGFQMWLEENRSNILSDNPDFSDEADIIKEGMIRFRVLSTEERKVWANKAKGETASEGTEAKKRKRVVDESDETENQEEKAKENLNLSKKQKPLDFSTNQKLSAFAFKQE", "binding": "binds"}, {"binder": "Aconitate hydratase, mitochondrial (protein, UniProt Q99798 28-780) QRAKVAMSHFEPNEYIHYDLLEKNINIVRKRLNRPLTLSEKIVYGHLDDPASQEIERGKSYLRLRPDRVAMQDATAQMAMLQFISSGLSKVAVPSTIHCDHLIEAQVGGEKDLRRAKDINQEVYNFLATAGAKYGVGFWKPGSGIIHQIILENYAYPGVLLIGTDSHTPNGGGLGGICIGVGGADAVDVMAGIPWELKCPKVIGVKLTGSLSGWSSPKDVILKVAGILTVKGGTGAIVEYHGPGVDSISCTGMATICNMGAEIGATTSVFPYNHRMKKYLSKTGREDIANLADEFKDHLVPDPGCHYDQLIEINLSELKPHINGPFTPDLAHPVAEVGKVAEKEGWPLDIRVGLIGSCTNSSYEDMGRSAAVAKQALAHGLKCKSQFTITPGSEQIRATIERDGYAQILRDLGGIVLANACGPCIGQWDRKDIKKGEKNTIVTSYNRNFTGRNDANPETHAFVTSPEIVTALAIAGTLKFNPETDYLTGTDGKKFRLEAPDADELPKGEFDPGQDTYQHPPKDSSGQHVDVSPTSQRLQLLEPFDKWDGKDLEDLQILIKVKGKCTTDHISAAGPWLKFRGHLDNISNNLLIGAINIENGKANSVRNAVTQEFGPVPDTARYYKKHGIRWVVIGDENYGEGSSREHAALEPRHLGGRAIITKSFARIHETNLKKQGLLPLTFADPADYNKIHPVDKLTIQGLKDFTPGKPLKCIIKHPNGTQETILLNHTFNETQIEWFRAGSALNRMKELQQ", "binding": "binds"}]}]}
